Measured values published in article PMC11193767.
These are yes or no findings as the source states them, for the method shown. In cells and extracts the contact can be indirect. These calls come from enrichment with a bait or labelling near it, and not all partners need be listed.

The chains behind the UniProt entries cited, without tags or fusion partners.
UniProt Q8IWT6: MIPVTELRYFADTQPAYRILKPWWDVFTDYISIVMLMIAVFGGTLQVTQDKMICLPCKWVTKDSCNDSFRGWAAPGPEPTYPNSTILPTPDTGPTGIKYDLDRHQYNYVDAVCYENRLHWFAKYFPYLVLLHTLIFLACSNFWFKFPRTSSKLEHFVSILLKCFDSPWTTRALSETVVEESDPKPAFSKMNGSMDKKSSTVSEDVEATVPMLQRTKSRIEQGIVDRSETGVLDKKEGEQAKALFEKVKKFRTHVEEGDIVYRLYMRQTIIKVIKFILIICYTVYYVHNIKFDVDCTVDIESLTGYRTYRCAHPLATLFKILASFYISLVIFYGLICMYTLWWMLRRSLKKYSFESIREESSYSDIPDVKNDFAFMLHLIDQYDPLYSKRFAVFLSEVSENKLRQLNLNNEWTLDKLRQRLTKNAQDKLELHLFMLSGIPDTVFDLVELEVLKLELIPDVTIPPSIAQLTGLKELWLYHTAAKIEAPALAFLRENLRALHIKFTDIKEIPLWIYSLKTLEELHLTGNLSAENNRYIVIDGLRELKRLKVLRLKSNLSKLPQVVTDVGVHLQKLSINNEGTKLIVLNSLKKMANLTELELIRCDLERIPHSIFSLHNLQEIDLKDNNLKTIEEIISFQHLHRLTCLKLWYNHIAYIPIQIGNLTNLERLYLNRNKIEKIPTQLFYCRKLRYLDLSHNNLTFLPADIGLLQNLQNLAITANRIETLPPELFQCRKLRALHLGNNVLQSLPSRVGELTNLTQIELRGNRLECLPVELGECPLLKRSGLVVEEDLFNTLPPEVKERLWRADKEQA

B1: Ankyrin repeat and SAM domain-containing protein 1A (protein, UniProt Q92625-1 1-1134)
chain: MGKEQELLEAARTGHLPAVEKLLSGKRLSSGFGGGGGGGSGGGGGGSGGGGGGLGSSSHPLSSLLSMWRGPNVNCVDSTGYTPLHHAALNGHKDVVEVLLRNDALTNVADSKGCYPLHLAAWKGDAQIVRLLIHQGPSHTRVNEQNNDNETALHCAAQYGHTEVVKVLLEELTDPTMRNNKFETPLDLAALYGRLEVVKMLLNAHPNLLSCNTKKHTPLHLAARNGHKAVVQVLLDAGMDSNYQTEMGSALHEAALFGKTDVVQILLAAGTDVNIKDNHGLTALDTVRELPSQKSQQIAALIEDHMTGKRSTKEVDKTPPPQPPLISSMDSISQKSQGDVEKAVTELIIDFDANAEEEGPYEALYNAISCHSLDSMASGRSSDQDSTNKEAEAAGVKPAGVRPRERPPPPAKPPPDEEEEDHIDKKYFPLTASEVLSMRPRIHGSAAREEDEHPYELLLTAETKKVVLVDGKTKDHRRSSSSRSQDSAEGQDGQVPEQFSGLLHGSSPVCEVGQDPFQLLCTAGQSHPDGSPQQGACHKASMQLEETGVHAPGASQPSALDQSKRVGYLTGLPTTNSRSHPETLTHTASPHPGGAEEGDRSGARSRAPPTSKPKAELKLSRSLSKSDSDLLTCSPTEDATMGSRSESLSNCSIGKKRLEKSPSFASEWDEIEKIMSSIGEGIDFSQERQKISGLRTLEQSVGEWLESIGLQQYESKLLLNGFDDVHFLGSNVMEEQDLRDIGISDPQHRRKLLQAARSLPKVKALGYDGNSPPSVPSWLDSLGLQDYVHSFLSSGYSSIDTVKNLWELELVNVLKVQLLGHRKRIIASLADRPYEEPPQKPPRFSQLRCQDLLSQTSSPLSQNDSCTGRSADLLLPPGDTGRRRHDSLHDPAAPSRAERFRIQEEHREAKLTLRPPSLAAPYAPVQSWQHQPEKLIFESCGYEANYLGSMLIKDLRGTESTQDACAKMRKSTEHMKKIPTIILSITYKGVKFIDASNKNVIAEHEIRNISCAAQDPEDLCTFAYITKDLQTSHHYCHVFSTVDVNLTYEIILTLGQAFEVAYQLALQAQKSRATGASAAEMIETKSSKPVPKPRVGVRKSALEPPDMDQDAQSHASVSWVVDPKPDSKRSLSTN
B2: Signal recognition particle receptor subunit alpha (protein, UniProt P08240-1 1-638)
chain: MLDFFTIFSKGGLVLWCFQGVSDSCTGPVNALIRSVLLQERGGNNSFTHEALTLKYKLDNQFELVFVVGFQKILTLTYVDKLIDDVHRLFRDKYRTEIQQQSALSLLNGTFDFQNDFLRLLREAEESSKIRAPTTMKKFEDSEKAKKPVRSMIETRGEKPKEKAKNSKKKGAKKEGSDGPLATSKPVPAEKSGLPVGPENGVELSKEELIRRKREEFIQKHGRGMEKSNKSTKSDAPKEKGKKAPRVWELGGCANKEVLDYSTPTTNGTPEAALSEDINLIRGTGSGGQLQDLDCSSSDDEGAAQNSTKPSATKGTLGGMFGMLKGLVGSKSLSREDMESVLDKMRDHLIAKNVAADIAVQLCESVANKLEGKVMGTFSTVTSTVKQALQESLVQILQPQRRVDMLRDIMDAQRRQRPYVVTFCGVNGVGKSTNLAKISFWLLENGFSVLIAACDTFRAGAVEQLRTHTRRLSALHPPEKHGGRTMVQLFEKGYGKDAAGIAMEAIAFARNQGFDVVLVDTAGRMQDNAPLMTALAKLITVNTPDLVLFVGEALVGNEAVDQLVKFNRALADHSMAQTPRLIDGIVLTKFDTIDDKVGAAISMTYITSKPIVFVGTGQTYCDLRSLNAKAVVAALMKA
B3: Sodium-coupled neutral amino acid transporter 1 (protein, UniProt Q9H2H9 1-487)
chain: MMHFKSGLELTELQNMTVPEDDNISNDSNDFTEVENGQINSKFISDRESRRSLTNSHLEKKKCDEYIPGTTSLGMSVFNLSNAIMGSGILGLAFALANTGILLFLVLLTSVTLLSIYSINLLLICSKETGCMVYEKLGEQVFGTTGKFVIFGATSLQNTGAMLSYLFIVKNELPSAIKFLMGKEETFSAWYVDGRVLVVIVTFGIILPLCLLKNLGYLGYTSGFSLSCMVFFLIVVIYKKFQIPCIVPELNSTISANSTNADTCTPKYVTFNSKTVYALPTIAFAFVCHPSVLPIYSELKDRSQKKMQMVSNISFFAMFVMYFLTAIFGYLTFYDNVQSDLLHKYQSKDDILILTVRLAVIVAVILTVPVLFFTVRSSLFELAKKTKFNLCRHTVVTCILLVVINLLVIFIPSMKDIFGVVGVTSANMLIFILPSSLYLKITDQDGDKGTQRIWAALFLGLGVLFSLVSIPLVIYDWACSSSSDEGH
B4: Sodium-dependent neutral amino acid transporter B(0)AT2 (protein, UniProt Q9H2J7-1 1-730)
chain: MPKNSKVVKRELDDDVTESVKDLLSNEDAADDAFKTSELIVDGQEEKDTDVEEGSEVEDERPAWNSKLQYILAQVGFSVGLGNVWRFPYLCQKNGGGAYLLPYLILLMVIGIPLFFLELSVGQRIRRGSIGVWNYISPKLGGIGFASCVVCYFVALYYNVIIGWSLFYFSQSFQQPLPWDQCPLVKNASHTFVEPECEQSSATTYYWYREALNISSSISESGGLNWKMTICLLAAWVMVCLAMIKGIQSSGKIIYFSSLFPYVVLICFLIRAFLLNGSIDGIRHMFTPKLEIMLEPKVWREAATQVFFALGLGFGGVIAFSSYNKRDNNCHFDAVLVSFINFFTSVLATLVVFAVLGFKANVINEKCITQNSETIMKFLKMGNISQDIIPHHINLSTVTAEDYHLVYDIIQKVKEEEFPALHLNSCKIEEELNKAVQGTGLAFIAFTEAMTHFPASPFWSVMFFLMLVNLGLGSMFGTIEGIVTPIVDTFKVRKEILTVICCLLAFCIGLIFVQRSGNYFVTMFDDYSATLPLLIVVILENIAVCFVYGIDKFMEDLKDMLGFAPSRYYYYMWKYISPLMLLSLLIASVVNMGLSPPGYNAWIEDKASEEFLSYPTWGLVVCVSLVVFAILPVPVVFIVRRFNLIDDSSGNLASVTYKRGRVLKEPVNLEGDDTSLIHGKIPSEMPSPNFGKNIYRKQSGSPTLDTAPNGRYGIGYLMADIMPDMPESDL
B5: Septin-9 (protein, UniProt Q9UHD8-1 1-586)
chain: MKKSYSGGTRTSSGRLRRLGDSSGPALKRSFEVEEVETPNSTPPRRVQTPLLRATVASSTQKFQDLGVKNSEPSARHVDSLSQRSPKASLRRVELSGPKAAEPVSRRTELSIDISSKQVENAGAIGPSRFGLKRAEVLGHKTPEPAPRRTEITIVKPQESAHRRMEPPASKVPEVPTAPATDAAPKRVEIQMPKPAEAPTAPSPAQTLENSEPAPVSQLQSRLEPKPQPPVAEATPRSQEATEAAPSCVGDMADTPRDAGLKQAPASRNEKAPVDFGYVGIDSILEQMRRKAMKQGFEFNIMVVGQSGLGKSTLINTLFKSKISRKSVQPTSEERIPKTIEIKSITHDIEEKGVRMKLTVIDTPGFGDHINNENCWQPIMKFINDQYEKYLQEEVNINRKKRIPDTRVHCCLYFIPATGHSLRPLDIEFMKRLSKVVNIVPVIAKADTLTLEERVHFKQRITADLLSNGIDVYPQKEFDEDSEDRLVNEKFREMIPFAVVGSDHEYQVNGKRILGRKTKWGTIEVENTTHCEFAYLRDLLIRTHMQNIKDITSSIHFEAYRVKRLNEGSSAMANGMEEKEPEAPEM
B6: Solute carrier family 26 member 6 (protein, UniProt Q9BXS9-1 1-759)
chain: MGLADASGPRDTQALLSATQAMDLRRRDYHMERPLLNQEHLEELGRWGSAPRTHQWRTWLQCSRARAYALLLQHLPVLVWLPRYPVRDWLLGDLLSGLSVAIMQLPQGLAYALLAGLPPVFGLYSSFYPVFIYFLFGTSRHISVGTFAVMSVMVGSVTESLAPQALNDSMINETARDAARVQVASTLSVLVGLFQVGLGLIHFGFVVTYLSEPLVRGYTTAAAVQVFVSQLKYVFGLHLSSHSGPLSLIYTVLEVCWKLPQSKVGTVVTAAVAGVVLVVVKLLNDKLQQQLPMPIPGELLTLIGATGISYGMGLKHRFEVDVVGNIPAGLVPPVAPNTQLFSKLVGSAFTIAVVGFAIAISLGKIFALRHGYRVDSNQELVALGLSNLIGGIFQCFPVSCSMSRSLVQESTGGNSQVAGAISSLFILLIIVKLGELFHDLPKAVLAAIIIVNLKGMLRQLSDMRSLWKANRADLLIWLVTFTATILLNLDLGLVVAVIFSLLLVVVRTQMPHYSVLGQVPDTDIYRDVAEYSEAKEVRGVKVFRSSATVYFANAEFYSDALKQRCGVDVDFLISQKKKLLKKQEQLKLKQLQKEEKLRKQAASPKGASVSINVNTSLEDMRSNNVEDCKMMQVSSGDKMEDATANGQEDSKAPDGSTLKALGLPQPDFHSLILDLGALSFVDTVCLKSLKNIFHDFREIEVEVYMAACHSPVVSQLEAGHFFDASITKKHLFASVHDAVTFALQHPRPVPDSPVSVTRL
B7: Zinc transporter ZIP10 (protein, UniProt Q9ULF5-1 26-831)
chain: HEEHDHGPEALHRQHRGMTELEPSKFSKQAAENEKKYYIEKLFERYGENGRLSFFGLEKLLTNLGLGERKVVEINHEDLGHDHVSHLDILAVQEGKHFHSHNHQHSHNHLNSENQTVTSVSTKRNHKCDPEKETVEVSVKSDDKHMHDHNHRLRHHHRLHHHLDHNNTHHFHNDSITPSERGEPSNEPSTETNKTQEQSDVKLPKGKRKKKGRKSNENSEVITPGFPPNHDQGEQYEHNRVHKPDRVHNPGHSHVHLPERNGHDPGRGHQDLDPDNEGELRHTRKREAPHVKNNAIISLRKDLNEDDHHHECLNVTQLLKYYGHGANSPISTDLFTYLCPALLYQIDSRLCIEHFDKLLVEDINKDKNLVPEDEANIGASAWICGIISITVISLLSLLGVILVPIINQGCFKFLLTFLVALAVGTMSGDALLHLLPHSQGGHDHSHQHAHGHGHSHGHESNKFLEEYDAVLKGLVALGGIYLLFIIEHCIRMFKHYKQQRGKQKWFMKQNTEESTIGRKLSDHKLNNTPDSDWLQLKPLAGTDDSVVSEDRLNETELTDLEGQQESPPKNYLCIEEEKIIDHSHSDGLHTIHEHDLHAAAHNHHGENKTVLRKHNHQWHHKHSHHSHGPCHSGSDLKETGIANIAWMVIMGDGIHNFSDGLAIGAAFSAGLTGGISTSIAVFCHELPHELGDFAVLLKAGMTVKQAIVYNLLSAMMAYIGMLIGTAVGQYANNITLWIFAVTAGMFLYVALVDMLPEMLHGDGDNEEHGFCPVGQFILQNLGLLFGFAIMLVIALYEDKIVFDIQF
B8: SH3 domain-containing protein 19 (protein, UniProt Q5HYK7 1-790)
chain: MNIMNTEQSQNSIVSRIKVFEGQTNIETSGLPKKPEITPRSLPPKPTVSSGKPSVAPKPAANRASGEWDSGTENRLKVTSKEGLTPYPPLQEAGSIPVTKPELPKKPNPGLIRSVNPEIPGRGPLAESSDSGKKVPTPAPRPLLLKKSVSSENPTYPSAPLKPVTVPPRLAGASQAKAYKSLGEGPPANPPVPVLQSKPLVDIDLISFDDDVLPTPSGNLAEESVGSEMVLDPFQLPAKTEPIKERAVQPAPTRKPTVIRIPAKPGKCLHEDPQSPPPLPAEKPIGNTFSTVSGKLSNVERTRNLESNHPGQTGGFVRVPPRLPPRPVNGKTIPTQQPPTKVPPERPPPPKLSATRRSNKKLPFNRSSSDMDLQKKQSNLATGLSKAKSQVFKNQDPVLPPRPKPGHPLYSKYMLSVPHGIANEDIVSQNPGELSCKRGDVLVMLKQTENNYLECQKGEDTGRVHLSQMKIITPLDEHLRSRPNDPSHAQKPVDSGAPHAVVLHDFPAEQVDDLNLTSGEIVYLLEKIDTDWYRGNCRNQIGIFPANYVKVIIDIPEGGNGKRECVSSHCVKGSRCVARFEYIGEQKDELSFSEGEIIILKEYVNEEWARGEVRGRTGIFPLNFVEPVEDYPTSGANVLSTKVPLKTKKEDSGSNSQVNSLPAEWCEALHSFTAETSDDLSFKRGDRIQILERLDSDWCRGRLQDREGIFPAVFVRPCPAEAKSMLAIVPKGRKAKALYDFRGENEDELSFKAGDIITELESVDDDWMSGELMGKSGIFPKNYIQFLQIS

molecular target: LRRC8A-BirA*-HA fusion protein (human) (UniProt Q8IWT6); assay: proximity labelling; BioID: HEK293 cells stably expressing LRRC8A-BirA*-HA (two clones), 50 uM biotin 24 h, RIPA lysis, streptavidin bead pull-down of biotinylated proteins, TMT labelling and LC-MS/MS; hits: FDR <= 0.05 and fold change >= 2 against the no-biotin control

binding, binds:
B1
B2
B3
B4
B5
B6
B7
B8
